Patent publication US20090304590A1
No constants are given. Whether binding was seen depends on the method and setting. Some binding calls cover weakened binding; strength is not graded here.

Assays:
[1] = target: Her2 (ErbB2) extracellular domain (ECD) (human) (UniProt P04626); assay: phage display selection and ELISA screening, soluble periplasmic scFv
[2] = target: Her2 (ErbB2) extracellular domain (ECD) (human) (UniProt P04626); assay: phage display selection and ELISA screening, scFv on phage

Binder	binding [1]	binding [2]
S1R3A1_CS_1B9 (scFv, V domains shown) VH: KVQLVQSGTEVKKPGESLKISCQGSGYRFSSDWIAWVRQMPGKGLEWMGIVYPGDSDTRYSPSFQGQVTISADKSISTAYLQWSGLKASDTAKYYCARVQQAVGAKGYAMDVWGKGTLVTVSS VL: QTVVIQEPSFSVSPGGTVTLTCGLSSGSVSTSYYPSWYRQTPGQAPHTLIHNTKIRSSGVPDRFSGSILGNNAALTITGAQADDESDYYCLLYMGSGIYVFGGGTKLTVL	binds	
S1R3B1_BMV_1H9 (scFv, V domains shown) VH: QVQLQESGAGLVKPSGTLSLTCAVSGGSISSGNWWSWVRQPPGKGLEWIGEISHSGSTNYNPSLKSRVTISVDKSKNQFSLNLSSVTAADTAVYYCARVRGTVGDTRGPDYWGQGTLVTVSS VL: SSELTQDPAVSVALGQTVRITCQGDSLRSYYASWYQQKPGQAPVLVIYGKNNRPSGIPDRFSGSSSGNTASLTITGAQAEDEADYYCNSRDSSGNHVVFGGGTKLTVL	binds	
S1R3A1_CS_1B10 (scFv, V domains shown) VH: EVQLVQSGAEVKKPGASVRVSCKGSGNTFTGHYIHWVRQAPGQGLEWLGWIDPNTGDIQYSENFKGSVTLTRDPSINSVFMDLIRLTSDDTAMYYCAREGAGLANYYYYGLDVWGRGTMVTVSS VL: QTVVLQEPSFSVSPGGTVTLTCGLNFGSVSTAYYPSWYQQTPGQAPRTLIYGTNIRSSGVPDRFSGSIVGNKAALTITGAQTEDESDYYCALYMGSGMLFGGGTKVTVL	binds	
S1R3B1_BMV_1H5 (scFv, V domains shown) VH: QVQLQESGGGVVQPGGSLRLSCAASGFTFSGYGMHWVRQAPGKGLEWVASVRNDGSNTYYTDSVKDRFTISRDNTKNTLYLQMNSLRAEDTAVYYCAKSRRVMYGTSYYFDYWGRGTLVTVSS VL: SSELTQDPAVSVALGQTVRITCQGDSLRSYYASWYQQKPGQAPVLVIYGKNNRPSGIPDRFSGSSSGNTASLTITGAQAEDEADYYCNSRDSSGNHVVFGGGTKLTVL	binds	
S1R3B1_BMV_1A1 (scFv, V domains shown) VH: EVQLVQSGAEVKEPGASVKVSCKASGYDFSNYGFSWVRQAPGQGLEWMGWISSYNGYTNYAQRLQGRVTMTTDTSTSTAYMELRSLRSDDTAVYYCARDRGLGNWYFDLWGQGTLVTVSS VL: QSVLTQPASVSGSPGQSITISCTGTSSDVGGYNYVSWYQQHPGKAPKLMIYEGSKRPSGVSNRFSGSKSGNTASLTISGLQAEDEADYYCSSYTTRSTRVFGGGTKLTVL	binds	
S1R3C1_CS_1D3 (scFv, V domains shown) VH: QVQLQESGPGLVKPSQTLSLTCGISGDSVSSNSAAWNWIRQSPTRGLEWLGRTYYRSSWYHNYAPSMNSRLTIIADTSKNQFSLQLNSVTPEDTAVYYCASGWAFDVWGRGTLVTVSS VL: QSVLTQPPSASGSPGQSVTISCTGTSSDVGAYDFVSWYQQHPGKAPKLMIYEVNKRPSGVPDRFSGSKSGNTASLTVSGLQAEDEADYYCSSYAGSKNLLFGGGTKLTVL		binds
S1R3B2_BMV_1G2 (scFv, V domains shown) VH: QVQLVQSGAEVKKPGSSVKVSCKASGYTFTSYGISWVRQAPGQGLEWMGWISAYNGNTNYAQKLQGRVTMTTDTSTSTAYMELRSLRSDDTAVYYCARVPGVSGSYPDYYYMDVWGKGTLVTVSS VL: DIQMTQSPSTLSASIGDRVTITCRASEGIYHWLAWYQQKPGKAPKLLIYKASSLASGAPSRFSGSGSGTDFTLTISSLQPDDFATYYCQQYSNYPLTFGGGTKLEIK		binds
S1R3A1_BMV_1F3 (scFv, V domains shown) VH: EVQLVESGEGLVKPGGSLRLSCTASGFTFRSYSLNWVRQAPGQGLEWVSSISSTSTYIYYADSVKGRFTISRDDAKNTLYLQMNSLRAEDTAAYYCVRLGSGGGYFPDYWGRGTLVTVSS VL: SSELTQDPAVSVALGQTVRITCQGDSLRSYYASWYQQKPGQAPVLVIYGKNNRPSGIPDRFSGSSSGNTASLTITGAQAEDEADYYCNSRDSSGNHVVFGGGTKLTVL	binds	
S1R3B1_BMV_1G11 (scFv, V domains shown) VH: QVQLVQSGGGLVQPGGSLRLSCAASGFTFSTYAMSWARQAPGKGLEWVSSISGDGGRILDADSAKGRFTISRDNSKNTLYLQMNGLRVEDTALYYCARADGNYWGRGTMVTVSS VL: QSVLTQPASVSGSPGQSITISCTGTSSDVGGYNYVSWYQQHPGKAPKLMIYEGSKRPSGVSNRFSGSKSGNTASLTISGLQAEDEADYYCSSYTTRSTRVFGGGTKLTVL	binds	
